Measurements as given in PMC12664368.
No constants are given. Whether binding was seen depends on the method and setting. In cells and extracts the contact can be indirect. Some entries that bind do so weakly or less than the wild type. Each block holds one molecule with its values, some of them ahead of it.

Assays:
[1] = molecular target: T1, tumour necrosis factor receptor-associated protein 1 (TRAP1) (mouse (endogenous in Panc02)) (UniProt Q9CQN1); assay: co-IP; antibodies against ABTB2 and TRAP1, each protein in turn bait or prey, followed by western blotting
T1 sequence: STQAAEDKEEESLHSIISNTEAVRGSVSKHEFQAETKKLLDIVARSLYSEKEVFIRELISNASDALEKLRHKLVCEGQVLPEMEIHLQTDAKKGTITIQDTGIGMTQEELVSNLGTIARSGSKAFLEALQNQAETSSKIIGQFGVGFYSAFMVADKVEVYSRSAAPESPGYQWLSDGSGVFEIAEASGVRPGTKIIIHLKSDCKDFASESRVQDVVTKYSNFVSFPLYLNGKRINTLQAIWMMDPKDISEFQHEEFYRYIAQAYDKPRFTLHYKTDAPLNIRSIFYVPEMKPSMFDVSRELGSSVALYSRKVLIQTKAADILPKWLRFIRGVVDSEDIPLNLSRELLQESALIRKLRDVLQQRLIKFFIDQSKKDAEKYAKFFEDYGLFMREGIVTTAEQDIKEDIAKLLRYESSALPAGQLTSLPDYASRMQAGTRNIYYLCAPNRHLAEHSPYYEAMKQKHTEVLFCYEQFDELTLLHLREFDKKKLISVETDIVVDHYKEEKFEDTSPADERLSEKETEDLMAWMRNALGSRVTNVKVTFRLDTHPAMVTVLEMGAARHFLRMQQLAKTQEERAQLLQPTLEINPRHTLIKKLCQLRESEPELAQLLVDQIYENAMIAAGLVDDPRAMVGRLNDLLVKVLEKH

[2] = molecular target: ankyrin repeat and BTB domain-containing protein 2 (ABTB2) (UniProt Q7TQI7); assay: as above

Molecule: ankyrin repeat and BTB domain-containing protein 2 (ABTB2) (from UniProt Q7TQI7 1-1024)
- binding [1]: binds

- binding [2]: binds
B1: tumour necrosis factor receptor-associated protein 1 (TRAP1) (protein, UniProt Q9CQN1 61-706)
chain: T1 sequence
